No constants are given. Whether binding was seen depends on the method and setting. In cells and extracts the contact can be indirect. Some results given as binding are weak or reduced against the parent protein; the word gives no strength. For part of these data: Where a sequence is shown, tags or fusion partners need not be part of it.

By UniProt entry, the sequences of proteins in these tests, tags left out. Where a name states a change or a piece, a line headed by the entry shows the natural chain unless it says otherwise. Chains listed by the source or under a name are the forms on record and can include a tag or linker. Residues count along the entry.
GST-JNK3 (P53779-2, form named): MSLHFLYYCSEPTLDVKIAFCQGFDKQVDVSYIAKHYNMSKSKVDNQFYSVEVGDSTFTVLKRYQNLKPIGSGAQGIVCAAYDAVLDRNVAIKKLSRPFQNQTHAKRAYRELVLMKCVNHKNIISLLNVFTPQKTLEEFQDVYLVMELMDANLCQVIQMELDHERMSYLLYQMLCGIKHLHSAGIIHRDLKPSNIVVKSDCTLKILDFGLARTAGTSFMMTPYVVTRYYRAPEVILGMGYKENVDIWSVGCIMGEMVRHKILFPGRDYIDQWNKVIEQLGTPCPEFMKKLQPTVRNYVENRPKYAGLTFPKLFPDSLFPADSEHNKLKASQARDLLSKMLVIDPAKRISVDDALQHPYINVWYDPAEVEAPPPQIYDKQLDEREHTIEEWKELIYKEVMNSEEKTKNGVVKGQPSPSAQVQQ
GST-JNK1 (P45983-2, form named): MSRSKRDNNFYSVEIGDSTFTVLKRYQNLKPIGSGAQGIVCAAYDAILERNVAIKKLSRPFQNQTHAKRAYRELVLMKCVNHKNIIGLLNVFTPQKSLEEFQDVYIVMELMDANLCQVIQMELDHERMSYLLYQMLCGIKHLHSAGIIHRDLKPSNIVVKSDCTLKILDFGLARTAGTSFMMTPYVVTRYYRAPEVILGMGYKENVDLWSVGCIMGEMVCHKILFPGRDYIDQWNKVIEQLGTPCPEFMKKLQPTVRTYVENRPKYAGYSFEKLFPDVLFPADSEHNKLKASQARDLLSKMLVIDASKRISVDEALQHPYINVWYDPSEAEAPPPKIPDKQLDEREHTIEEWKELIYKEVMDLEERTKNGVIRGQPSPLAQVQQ
UniProt P10071, residues 280-478: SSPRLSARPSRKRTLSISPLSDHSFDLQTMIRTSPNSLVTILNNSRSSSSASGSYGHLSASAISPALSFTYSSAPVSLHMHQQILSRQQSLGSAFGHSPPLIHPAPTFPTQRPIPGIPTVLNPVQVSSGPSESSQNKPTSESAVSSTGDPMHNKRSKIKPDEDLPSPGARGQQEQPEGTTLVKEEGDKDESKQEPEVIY
UniProt Q96FI4: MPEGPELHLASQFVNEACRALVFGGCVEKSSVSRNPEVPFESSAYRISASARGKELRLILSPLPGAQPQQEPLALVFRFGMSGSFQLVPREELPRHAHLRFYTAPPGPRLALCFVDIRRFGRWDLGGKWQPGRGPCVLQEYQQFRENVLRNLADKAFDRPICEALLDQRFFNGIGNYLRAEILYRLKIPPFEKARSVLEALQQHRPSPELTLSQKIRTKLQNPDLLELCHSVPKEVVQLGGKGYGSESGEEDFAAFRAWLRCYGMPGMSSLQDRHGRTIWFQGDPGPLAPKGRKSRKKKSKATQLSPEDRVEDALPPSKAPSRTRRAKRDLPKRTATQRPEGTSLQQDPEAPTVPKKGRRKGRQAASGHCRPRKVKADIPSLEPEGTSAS

Holding throughout (experiment): pull-down; GST fusion protein (or GST alone) bound to glutathione-Sepharose beads; ~1 pmol 35S-labelled in vitro translated partner, partially purified by ammonium sulfate precipitation; binding buffer 20 mM Tris-HCl pH 7.5, 125 mM KOAc, 0.5 mM EDTA, 1 mM DTT, 0.1% Tween20, 12.5% glycerol; 30°C 15 min, then 30 min at room temperature; only the target purified
In experiment [1] the target is T1, GST-PPM1J(17-506), wild type (human) (UniProt Q5JR12).
T1 sequence: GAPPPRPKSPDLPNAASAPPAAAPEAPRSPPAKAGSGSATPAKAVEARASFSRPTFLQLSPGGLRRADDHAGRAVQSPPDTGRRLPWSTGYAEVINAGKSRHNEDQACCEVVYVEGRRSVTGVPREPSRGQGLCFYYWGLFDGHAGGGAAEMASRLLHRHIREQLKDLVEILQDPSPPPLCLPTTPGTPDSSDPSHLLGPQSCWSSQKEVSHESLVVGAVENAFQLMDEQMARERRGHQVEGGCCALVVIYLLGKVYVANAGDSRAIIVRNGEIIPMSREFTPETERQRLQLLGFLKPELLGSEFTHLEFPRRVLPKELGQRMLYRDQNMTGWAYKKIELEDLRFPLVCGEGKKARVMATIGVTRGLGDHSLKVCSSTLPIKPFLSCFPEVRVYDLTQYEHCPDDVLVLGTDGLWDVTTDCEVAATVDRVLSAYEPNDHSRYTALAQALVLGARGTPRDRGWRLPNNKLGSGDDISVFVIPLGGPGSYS

Experiment [2] addresses GST-JNK3 (human) (UniProt P53779).
The target in experiment [3] is GST-JNK2 (human) (UniProt P45984).
Experiment [4] has as its target GST-JNK1 (human) (UniProt P45983).

“35S-radiolabeled JNK1 (from UniProt P45983-2 1-384) (enzyme)”: the binding entry in experiment [1] was “binds”.

As to “35S-radiolabeled JNK2 (from UniProt P45984-1 1-424) (enzyme)”, in experiment [1], the binding entry is reported as “binds”.

In the case of “35S-radiolabeled JNK3 (from UniProt P53779-2 1-422) (enzyme)”, in experiment [1], the binding result is reported as “binds”.

On to “Gli3(280-478), wild type (from UniProt P10071 280-478) (domain or fragment)”, for which the binding entry in experiment [2], in experiment [3] and in experiment [4] was “binds” each time.

As to “Heterogeneous nuclear ribonucleoprotein K (hnRNP-K), full length, wild type (from UniProt P61978-2 1-464)”, the binding result in experiment [4] is “binds”.

Take “Nei endonuclease VIII-like 1 (Neil1), full length (from UniProt Q96FI4 1-390)”: the binding entry is reported as “no binding” in experiment [3] and “binds” in experiment [4].
